The values below are quoted from earlier work in patent US20060281715A1, “Phosphates of secondary alcohols” (priority 2003, published 2006).

Molecules are shown by their SMILES.

For this data set the following is noted: after administration.

`CC(C)c1c(C(=O)Nc2ccccc2)c(-c2ccccc2)c(-c2ccc(F)cc2)n1CC[C@@H](O)C[C@@H](O)CC(=O)O` [atorvastatin]: the “time to maximal plasma concentrations” value was “approximately 2 hours”.
